Assay results: PubChem BioAssay AID493014 (National Center for Advancing Translational Sciences (NCATS), 2011)
The list shows a part of the results. The main result of the screen is listed elsewhere. These columns were measured beside it and carry no call. Compounds called inactive in the main read-out are mostly missing here. Words in brackets tell the shape of the fitted curve; partial curves, single points and poor fits give uncertain potencies.

Test: qHTS Assay to Find Inhibitors of Chronic Active B-Cell Receptor Signaling
Settings: ABC-DLBCL IkBa-CBG/CBR reporter, luminescence ratio (green luciferase fused to IkBa over red control in TMD8 lymphoma cells), 4 h
Summary of the method: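 Compounds up to 46 uM were incubated four hours with TMD8 cells whose green CBG68 luciferase is fused to IkappaBalpha; red CBR luminescence normalised the signal, and concentration-effect curves were fitted to fusion, red and ratio data.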

[1] = measured here: CBR red luminescence, cell number
[2] = measured here: IkBa-CBG green luminescence

SMILES	AC50 [1]	AC50 [2]
COc1ccc(-c2[nH]c(-c3ccc4c(c3)OCO4)nc2-c2ccccc2)cc1	5.62 µM [falling, partial curve, poor fit]	
Oc1ccc(N=Nc2ccc3c(c2)OCCO3)c2ncccc12	5.62 µM [rising, single point]	
Cc1ccc(C(=O)OCC(=O)Nc2ccccc2Cl)c(O)c1	1.78 µM [falling, full curve]	
COc1cccc(Nc2sc(C(=O)c3ccc(Cl)cc3)c(N)c2C(=O)NCCc2ccc(OC)c(OC)c2)c1	3.16 µM [rising, single point]	
COc1ccc(NC(=O)CNC(=O)c2cccs2)cc1Cl	15.8 µM [rising, partial curve, poor fit]	
C=CCC(C=C)S(=O)(=O)c1ccc(C)cc1 (stereo not given)	29.1 µM [rising, single point]	25.9 µM [falling, partial curve, poor fit]
COc1ccc(CCN2C(=O)C3C(C2=O)C2C=CC3C23CC3)cc1OC (stereo not given)	20 µM [falling, partial curve, poor fit]	
CCCCc1ccc(NC(=O)Nc2cnccn2)cc1	3.55 µM [rising, full curve]	
CCc1ccc(NC(=O)c2ccc(F)c(S(=O)(=O)NCCc3ccc(OC)c(OC)c3)c2)cc1	15.8 µM [falling, single point]	
O=C(O)c1ccc(-n2nncc2-c2ccco2)cc1	12.6 µM [rising, partial curve, poor fit]	
Cc1cccc(/C=C2/S/C(=N/N=C3\CC4CCC3(C)C4(C)C)NC2=O)c1 (stereo not given)	7.94 µM [rising, partial curve, poor fit]	
Cc1ccccc1-n1c(=O)/c(=C\c2ccco2)s/c1=C(/C#N)C(=O)Nc1ccccc1	17.8 µM [rising, partial curve, poor fit]	
O=C(NCc1cccs1)C(=O)c1cn(CC(=O)N2CCOCC2)c2ccccc12	11.2 µM [falling, partial curve]	
Cc1ccc(N2C(=O)c3ccc(C(=O)O)cc3C2=O)cc1C	18.4 µM [falling, single point]	
CCC1CCc2sc(C(=O)NCC(c3ccc(OC)cc3)N3CCOCC3)cc2C1 (stereo not given)	29.1 µM [rising, single point]	
CCCc1nnc(NC(=O)NCCN2C(=O)C3C4C=CC(C4)C3C2=O)s1 (stereo not given)	13 µM [rising, partial curve, poor fit]	
CN(Cc1nc(C(c2ccccc2)c2ccccc2)no1)CC1COCCO1 (stereo not given)	6.31 µM [falling, partial curve]	
Cc1ccc(S(=O)(=O)Nc2ccccc2C(=O)OC(C)C(=O)Nc2ccc3ccccc3c2)cc1[N+](=O)[O-] (stereo not given)	6.51 µM [rising, partial curve, poor fit]	
CCCOc1ccc(CSC2=NCCN2)cc1[N+](=O)[O-]	35.5 µM [falling, single point]	
O=C(Nc1ccccc1)Nc1ccc(Br)cc1F	16.4 µM [falling, single point]	
O=C(CSc1nc2ccccc2nc1N1CCCC1)Nc1ccc(Cl)cc1	5.01 µM [falling, partial curve, poor fit]	

SMILES	AC50 [1]	AC50 [2]
c1ccc(C2=NN(c3ccccc3)CC2)cc1	1.41 µM [rising, full curve]	
Cc1ccc2c(c1)C(=O)N1[C@H]3c4cc(C)ccc4OC[C@@H]3[C@H](c3ccccc3)[C@]1(C)C(=O)N2	18.4 µM [falling, single point]	
O=c1[nH]c(Cc2ccc(Cl)cc2)nc2ccccc12	15.8 µM [rising, partial curve, poor fit]	
Cc1csc(N(C(=O)c2cccc(S(=O)(=O)N3CCCC3)c2)c2ccccc2)n1	20.6 µM [falling, single point]	
O=C(Cc1ccccc1)N1CCN=C1SCc1ccc([N+](=O)[O-])cc1	29.1 µM [falling, single point]	
CC(C)Sc1nc2sccc2c(=O)n1-c1ccccc1	12.6 µM [rising, partial curve]	
O=C(Nc1ccc(Cl)cc1)OCc1cn(-c2ccc(Cl)cc2)nn1	3.16 µM [rising, partial curve, poor fit]	
CC(C)c1cc(C(N)=O)c(NC(=O)c2cccc(COc3ccc(Cl)cc3)c2)s1	13 µM [falling, single point]	
CCOC(=O)c1csc(NC(=O)c2cc(-c3ccccn3)nc3ccccc23)n1	23.1 µM [rising, single point]	
Cc1ccc(C)c(N(C(=O)Cn2nnc3ccccc32)C(C(=O)NCc2ccco2)c2ccncc2)c1 (stereo not given)	0.146 µM [falling, full curve, poor fit]	
CC(=O)Oc1cccc(N2C(=O)CC(Nc3ccc(N4CCOCC4)cc3)C2=O)c1 (stereo not given)	14.6 µM [falling, partial curve]	
N#Cc1cccc(S(=O)(=O)N2CCN(c3ccnc4cc(Cl)ccc34)CC2)c1	15.8 µM [falling, single point]	
O=C(NCCN1CCOCC1)c1cc2sccc2n1Cc1ccc(Cl)cc1	14.6 µM [rising, partial curve, poor fit]	
O=C(/C=C\c1ccccc1)NCC(=O)N/N=C/c1ccc(O)cc1O	3.98 µM [rising, single point]	
Cc1ccc2cc(-c3noc(C(C)(C)C)n3)c(=O)[nH]c2c1	2 µM [rising, full curve, poor fit]	
O=C(CC1N=C2c3ccccc3N=C(SCC(=O)Nc3ccc(F)cc3)N2C1=O)NCc1ccc2c(c1)OCO2 (stereo not given)	0.708 µM [falling, full curve, poor fit]	
O=C(CN1CCN(c2cccc(Cl)c2)CC1)NC1CCCc2ccccc21 (stereo not given)	35.5 µM [falling, single point]	
O=C(COc1ccc2c(-c3ccccc3)cc(=O)oc2c1)N[C@H](Cc1c[nH]c2ccccc12)C(=O)O	2.82 µM [falling, full curve, poor fit]	
Cc1ccc(S(=O)(=O)CC(=O)c2ccccc2)cc1	11.2 µM [rising, partial curve, poor fit]	
N/C(Cc1ccc(Cl)cc1Cl)=N\OC(=O)Cc1cccs1	20.6 µM [rising, partial curve, poor fit]	
CN(Cc1ccccc1)c1nc2c(c(=O)[nH]c(=O)n2C)n1Cc1ccccc1Cl	3.66 µM [falling, single point]	6.51 µM [rising, single point]

SMILES	AC50 [1]	AC50 [2]
O=C1N=c2ccccc2=C1c1sc(=S)n(NC(=O)c2cccc(O)c2)c1O	12.6 µM [falling, partial curve, poor fit]	
Cc1ccc(NC(=O)COC(=O)c2ccc(NC(=O)CC#N)cc2)cc1S(=O)(=O)N1CCOCC1	20.6 µM [falling, single point]	
Cc1cc(Nc2ccccc2)nc2cc(O)ccc12	9.2 µM [rising, partial curve]	29.1 µM [falling, single point]
CC(C)N(NC(=O)c1cccc2ccccc12)C(C)C	14.1 µM [rising, single point]	
CCOc1ccc(NC(=O)CN(C)S(=O)(=O)c2cccs2)cc1	20.6 µM [falling, partial curve]	
O=C(N/N=C/c1cccs1)c1ccc2nc[nH]c2c1	35.5 µM [falling, single point]	
COC(=O)CCSc1cc(NCCOC(C)=O)c([N+](=O)[O-])c2nonc12	23.1 µM [falling, single point]	
O=C(COc1ccccc1)N1N=C(c2cccnc2)CC1(O)C(F)(F)F (stereo not given)	10.3 µM [rising, partial curve, poor fit]	
CCn1c(C(=O)O)c(S(=O)(=O)c2ccc(Cl)cc2)c2ccccc21	8.91 µM [rising, partial curve, poor fit]	
CC1CN(C(=O)CCC(=O)NC(C)c2ccccc2)c2cc(Cl)ccc2O1 (stereo not given)	8.91 µM [falling, partial curve]	
COc1cccc(-n2nnnc2SCC(=O)Nc2ccc(C(C)=O)cc2)c1	23.1 µM [rising, single point]	
CNCC[C@H](Oc1cccc2ccccc12)c1cccs1	22.4 µM [falling, partial curve, poor fit]	
CC1CCCN(c2ncnc3c2cnn3-c2ccccc2)C1 (stereo not given)	35.5 µM [falling, single point]	
N#Cc1cccc(NC(=O)CN2CCCCCC2)c1	6.31 µM [rising, single point]	
Cc1ccc(-c2cn(-c3ccccc3)c(=S)[nH]2)cc1C	20 µM [falling, partial curve]	
CCn1c(=O)n(CCOC)c(=O)c2c3c(sc21)CCCC3	0.517 µM [falling, full curve, poor fit]	
COc1ccc2[nH]c(=O)c(CN(Cc3cccnc3)C(=O)Nc3ccccc3)cc2c1	12.6 µM [falling, partial curve]	
COc1ccc(CCNC(=O)C2c3ccccc3C(=O)N2CCC(C)C)cc1OC (stereo not given)	2.82 µM [rising, full curve, poor fit]	
O=C(CN1CCC(C(O)(c2ccccc2)c2ccccc2)CC1)Nc1ccccc1	15.8 µM [falling, single point]	
C=CCN(CC=C)C(=O)c1ccc(OC2CCN(S(=O)(=O)N(C)C)CC2)cc1	1.58 µM [rising, partial curve]	

As a working copy, some entries already given:
SMILES	AC50 [1]	AC50 [2]
O=C1N=c2ccccc2=C1c1sc(=S)n(NC(=O)c2cccc(O)c2)c1O	12.6 µM [falling, partial curve, poor fit]	
Cc1ccc(NC(=O)COC(=O)c2ccc(NC(=O)CC#N)cc2)cc1S(=O)(=O)N1CCOCC1	20.6 µM [falling, single point]	
Cc1cc(Nc2ccccc2)nc2cc(O)ccc12	9.2 µM [rising, partial curve]	29.1 µM [falling, single point]
CC(C)N(NC(=O)c1cccc2ccccc12)C(C)C	14.1 µM [rising, single point]	
CCOc1ccc(NC(=O)CN(C)S(=O)(=O)c2cccs2)cc1	20.6 µM [falling, partial curve]	
O=C(N/N=C/c1cccs1)c1ccc2nc[nH]c2c1	35.5 µM [falling, single point]	
COC(=O)CCSc1cc(NCCOC(C)=O)c([N+](=O)[O-])c2nonc12	23.1 µM [falling, single point]	
O=C(COc1ccccc1)N1N=C(c2cccnc2)CC1(O)C(F)(F)F (stereo not given)	10.3 µM [rising, partial curve, poor fit]	
CCn1c(C(=O)O)c(S(=O)(=O)c2ccc(Cl)cc2)c2ccccc21	8.91 µM [rising, partial curve, poor fit]	
CC1CN(C(=O)CCC(=O)NC(C)c2ccccc2)c2cc(Cl)ccc2O1 (stereo not given)	8.91 µM [falling, partial curve]	
COc1cccc(-n2nnnc2SCC(=O)Nc2ccc(C(C)=O)cc2)c1	23.1 µM [rising, single point]	
CNCC[C@H](Oc1cccc2ccccc12)c1cccs1	22.4 µM [falling, partial curve, poor fit]	
CC1CCCN(c2ncnc3c2cnn3-c2ccccc2)C1 (stereo not given)	35.5 µM [falling, single point]	
N#Cc1cccc(NC(=O)CN2CCCCCC2)c1	6.31 µM [rising, single point]	
Cc1ccc(-c2cn(-c3ccccc3)c(=S)[nH]2)cc1C	20 µM [falling, partial curve]	
CCn1c(=O)n(CCOC)c(=O)c2c3c(sc21)CCCC3	0.517 µM [falling, full curve, poor fit]	
